Results on 4 molecules are retold here after PMC2603589.

Protein sequences, listed by entry. Tags and fused reporters are not part of them. Residues count along the entry.
UniProt P09803, residues 732-883: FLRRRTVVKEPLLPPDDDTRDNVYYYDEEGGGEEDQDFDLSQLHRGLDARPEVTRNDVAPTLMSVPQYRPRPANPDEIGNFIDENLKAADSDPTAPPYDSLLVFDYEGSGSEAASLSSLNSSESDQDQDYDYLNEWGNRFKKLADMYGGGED
UniProt P15116, residues 746-906: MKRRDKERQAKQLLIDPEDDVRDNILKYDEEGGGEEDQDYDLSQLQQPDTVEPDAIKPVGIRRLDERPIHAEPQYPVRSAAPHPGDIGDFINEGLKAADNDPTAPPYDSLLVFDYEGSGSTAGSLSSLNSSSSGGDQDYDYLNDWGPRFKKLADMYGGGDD
UniProt P45481: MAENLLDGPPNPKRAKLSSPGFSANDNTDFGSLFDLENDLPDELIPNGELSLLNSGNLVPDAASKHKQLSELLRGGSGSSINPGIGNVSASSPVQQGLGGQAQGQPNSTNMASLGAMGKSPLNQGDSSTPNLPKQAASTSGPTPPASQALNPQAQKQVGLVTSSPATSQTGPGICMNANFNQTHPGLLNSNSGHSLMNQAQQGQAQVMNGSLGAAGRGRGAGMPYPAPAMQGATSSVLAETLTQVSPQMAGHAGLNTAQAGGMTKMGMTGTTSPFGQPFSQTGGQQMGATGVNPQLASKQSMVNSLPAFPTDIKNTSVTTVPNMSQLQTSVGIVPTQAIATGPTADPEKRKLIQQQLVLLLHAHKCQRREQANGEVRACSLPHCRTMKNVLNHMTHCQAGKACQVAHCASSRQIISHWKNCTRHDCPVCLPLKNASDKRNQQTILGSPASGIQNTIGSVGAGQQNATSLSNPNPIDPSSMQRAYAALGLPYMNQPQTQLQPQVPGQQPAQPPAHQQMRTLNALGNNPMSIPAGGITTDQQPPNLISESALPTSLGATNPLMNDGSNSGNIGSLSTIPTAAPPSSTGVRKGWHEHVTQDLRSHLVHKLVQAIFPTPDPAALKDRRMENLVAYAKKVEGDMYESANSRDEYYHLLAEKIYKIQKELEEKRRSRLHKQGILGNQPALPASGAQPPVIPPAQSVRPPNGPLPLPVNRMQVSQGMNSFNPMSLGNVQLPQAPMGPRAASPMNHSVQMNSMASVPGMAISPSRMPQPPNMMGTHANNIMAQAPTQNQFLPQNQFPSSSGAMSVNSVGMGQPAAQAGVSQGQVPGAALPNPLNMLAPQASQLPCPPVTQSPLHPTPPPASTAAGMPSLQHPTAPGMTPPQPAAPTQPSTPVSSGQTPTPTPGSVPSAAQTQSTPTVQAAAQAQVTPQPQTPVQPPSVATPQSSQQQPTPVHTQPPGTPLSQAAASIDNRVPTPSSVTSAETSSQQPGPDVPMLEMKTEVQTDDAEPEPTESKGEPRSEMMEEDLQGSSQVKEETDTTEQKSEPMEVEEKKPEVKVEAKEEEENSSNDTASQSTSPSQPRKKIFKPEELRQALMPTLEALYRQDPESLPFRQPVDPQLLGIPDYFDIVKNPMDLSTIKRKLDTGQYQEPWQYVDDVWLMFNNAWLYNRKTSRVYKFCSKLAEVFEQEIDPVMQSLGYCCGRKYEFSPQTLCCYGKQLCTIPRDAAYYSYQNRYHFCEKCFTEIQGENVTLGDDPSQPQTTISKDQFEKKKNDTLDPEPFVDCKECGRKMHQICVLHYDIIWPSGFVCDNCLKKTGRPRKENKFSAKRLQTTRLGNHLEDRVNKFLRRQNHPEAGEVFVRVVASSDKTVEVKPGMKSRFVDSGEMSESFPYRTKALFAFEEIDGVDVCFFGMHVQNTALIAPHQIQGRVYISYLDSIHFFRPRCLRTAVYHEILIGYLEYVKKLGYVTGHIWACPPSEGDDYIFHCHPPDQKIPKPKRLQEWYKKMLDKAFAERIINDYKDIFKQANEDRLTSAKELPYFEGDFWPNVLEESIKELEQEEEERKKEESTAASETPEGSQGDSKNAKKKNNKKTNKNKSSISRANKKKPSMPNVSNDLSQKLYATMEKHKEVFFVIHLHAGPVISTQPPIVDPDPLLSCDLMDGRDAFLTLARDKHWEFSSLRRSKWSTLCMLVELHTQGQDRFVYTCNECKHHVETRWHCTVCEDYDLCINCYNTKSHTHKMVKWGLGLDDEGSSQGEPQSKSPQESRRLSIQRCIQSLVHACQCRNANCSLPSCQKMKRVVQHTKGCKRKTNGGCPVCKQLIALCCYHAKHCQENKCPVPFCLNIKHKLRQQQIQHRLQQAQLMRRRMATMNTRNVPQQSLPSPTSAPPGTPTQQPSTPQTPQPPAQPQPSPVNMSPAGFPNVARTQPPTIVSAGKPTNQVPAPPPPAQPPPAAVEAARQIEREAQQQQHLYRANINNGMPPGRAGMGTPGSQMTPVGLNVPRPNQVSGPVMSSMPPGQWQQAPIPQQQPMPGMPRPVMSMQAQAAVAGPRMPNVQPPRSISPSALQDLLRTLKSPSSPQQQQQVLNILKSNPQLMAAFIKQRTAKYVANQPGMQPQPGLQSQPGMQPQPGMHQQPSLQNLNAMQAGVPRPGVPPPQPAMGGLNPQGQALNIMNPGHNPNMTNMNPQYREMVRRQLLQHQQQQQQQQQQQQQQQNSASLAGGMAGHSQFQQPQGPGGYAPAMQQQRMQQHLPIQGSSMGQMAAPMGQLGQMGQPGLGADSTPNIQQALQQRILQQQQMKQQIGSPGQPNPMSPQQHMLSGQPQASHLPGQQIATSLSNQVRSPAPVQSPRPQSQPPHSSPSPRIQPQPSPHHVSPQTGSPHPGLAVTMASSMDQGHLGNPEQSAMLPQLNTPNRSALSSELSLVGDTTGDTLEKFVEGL

Assay [1] addresses GST-E-cadh-CTF2 phosphorylated in vitro with CK1 (murine) (UniProt P09803). The assay can be described thus: pull-down; 20 pmols of non-phosphorylated or CKI-phosphorylated GST-cadh-CTF2 proteins incubated with 1.2 mg of MEF PS (−/−) total cell extracts; glutathione-Sepharose; Western blot with anti-CBP; autoradiograms scanned; only the target purified. A general note: Immunoblotting shows a protein as a band on a membrane.

The target of assay [2] is GST-N-cadh-CTF2 (cytosolic domain of murine N-cadherin fused to GST) (murine) (UniProt P15116). The assay is described as above.
The target in assay [3] is GST-E-cadh-CTF2 (cytosolic domain of murine E-cadherin fused to GST) (murine) (UniProt P09803). Described as above.
For assay [4], the target named is GST-N-cadh-CTF2 phosphorylated in vitro with CK1 (murine) (UniProt P15116). The assay is described as above.
For assay [5], the target named is CBP, endogenous in MEF PS (−/−) (mouse (endogenous in MEF)) (UniProt P45481). As to the kind of experiment: co-IP; MEFs PS (−/−) transfected with E-cadh-CTF2-GFP, 30 µM MG132 for 4 h; 500 µg of cytosolic fraction (RIPA buffer) with 2.5 µg of anti-CBP antibody.
Assay [6] addresses T1, β-catenin, endogenous in MEFs (mouse (endogenous in MEF)), Q02248.
T1 chain: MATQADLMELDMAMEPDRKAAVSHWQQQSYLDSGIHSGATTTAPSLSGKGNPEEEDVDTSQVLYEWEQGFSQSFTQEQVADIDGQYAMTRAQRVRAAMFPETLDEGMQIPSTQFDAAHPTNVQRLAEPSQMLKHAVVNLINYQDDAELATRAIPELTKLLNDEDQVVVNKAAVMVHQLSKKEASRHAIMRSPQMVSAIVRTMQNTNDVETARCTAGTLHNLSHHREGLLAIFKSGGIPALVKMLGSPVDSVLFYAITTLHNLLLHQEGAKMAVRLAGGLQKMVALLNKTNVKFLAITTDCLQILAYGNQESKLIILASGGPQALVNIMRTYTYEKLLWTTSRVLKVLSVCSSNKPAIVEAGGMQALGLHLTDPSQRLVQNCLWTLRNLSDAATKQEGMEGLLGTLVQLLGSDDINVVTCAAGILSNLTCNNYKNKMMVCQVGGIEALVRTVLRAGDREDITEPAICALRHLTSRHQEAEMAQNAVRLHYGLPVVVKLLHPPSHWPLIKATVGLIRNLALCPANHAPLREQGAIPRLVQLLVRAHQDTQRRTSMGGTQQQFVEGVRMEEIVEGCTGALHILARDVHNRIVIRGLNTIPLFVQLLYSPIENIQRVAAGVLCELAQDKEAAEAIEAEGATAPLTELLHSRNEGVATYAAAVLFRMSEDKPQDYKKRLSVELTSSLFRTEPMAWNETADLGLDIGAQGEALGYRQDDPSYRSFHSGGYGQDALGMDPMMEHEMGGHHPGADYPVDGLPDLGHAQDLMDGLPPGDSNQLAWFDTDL
The assay can be described thus: co-IP; 800 µg of MEF PS (−/−) and PS (+/+) total-cell extracts immunoprecipitated with an anti-β-catenin MAb; Western blot against Tcf-4 and β-catenin. Conditions: remark: other sources report otherwise.

Assay [7] has as its target GST-E-cadh-CTF2 (cytosolic domain of murine E-cadherin fused to GST) (murine) (UniProt P09803). As to the kind of experiment: pull-down; 12 pmol of GST-E-cadh-CTF2 pre-incubated with 20 pmols of recombinant p120-catenin; read out as loss of PS1 from the MEF PS (+/+) extract; both purified.

No constants are given. Whether binding was seen depends on the method and setting. For some of these results: Binding seen in cells or lysates may run through a third protein. Some binding calls cover weakened binding; strength is not graded here.

Consider “CBP, endogenous in MEF PS (−/−) (from UniProt P45481 1-2441)”, for which the binding entry in assay [1], in assay [2], in assay [3] and in assay [4] was “binds” throughout.

As for “E-cadh-CTF2-GFP (from UniProt P09803 732-883) (domain or fragment)”, the binding result in assay [5] is on record as “binds”.

B1: Tcf-4, endogenous in MEFs, Q924A0 1-459 (protein)
chain: MPQLNGGGGDDLGANDELISFKDEGEQEEKNSENSSAERDLADVKSSLVNESETNQDSSSDSEAERRPPPRSESFRDKSRESLEEAAKRQDGGLFKGPPYPGYPFIMIPDLTSPYLPNGSLSPTARTYLQMKWPLLDVQAGSLQSRQTLKDARSPSPAHIVSNKVPVVQHPHHVHPLTPLITYSNEHFTPGNPPPHLPADVDPKTGIPRPPHPPDISPYYPLSPGTVGQIPHPLGWLVPQQGQPVYPITTGGFRHPYPTALTVNASMSRFPPHMVPPHHTLHTTGIPHPAIVTPTVKQESSQSDVGSLHSSKHQDSKKEEEKKKPHIKKPLNAFMLYMKEMRAKVVAECTLKESAAINQILGRRWHALSREEQAKYYELARKERQLHMQLYPGWSARDNYGKKKKRKRDKQPGETNEHSECFLNPCLSLPPITDLSAPKKCRARFGLDQQNNWCGPCSL
On to B1, for which, in assay [6], the binding result is “binds”.

B2: recombinant p120-catenin (protein, UniProt P30999 1-938)
chain: MDDSEVESTASILASVKEQEAQFEKLTRALEEERRHVSAQLERVRVSPQDANSLMANGTLTRRHQNGRFVGDADLERQKFSDLKLNGPQDHNHLLYSTIPRMQEPGQIVETYTEEDPEGAMSVVSVETTDDGTTRRTETTVKKVVKTMTTRTVQPVPMGPDGLPVDASAVSNNYIQTLGRDFRKNGNGGPGPYVGQAGTATLPRNFHYPPDGYGRHYEDGYPGGSDNYGSLSRVTRIEERYRPSMEGYRAPSRQDVYGPQPQVRVGGSSVDLHRFHPEPYGLEDDQRSMGYDDLDYGMMSDYGTARRTGTPSDPRRRLRSYEDMIGEEVPPDQYYWAPLAQHERGSLASLDSLRKGMPPPSNWRQPELPEVIAMLGFRLDAVKSNAAAYLQHLCYRNDKVKTDVRKLKGIPILVGLLDHPKKEVHLGACGALKNISFGRDQDNKIAIKNCDGVPALVRLLRKARDMDLTEVITGTLWNLSSHDSIKMEIVDHALHALTDEVIIPHSGWEREPNEDCKPRHIEWESVLTNTAGCLRNVSSERSEARRKLRECDGLVDALIFIVQAEIGQKDSDSKLVENCVCLLRNLSYQVHREIPQAERYQEALPTVANSTGPHAASCFGAKKGKDEWFSRGKKPTEDPANDTVDFPKRTSPARGYELLFQPEVVRIYISLLKESKTPAILEASAGAIQNLCAGRWTYGRYIRSALRQEKALSAIAELLTSEHERVVKAASGALRNLAVDARNKELIGKHAIPNLVKNLPGGQQNSSWNFSEDTVVSILNTINEVIAENLEAAKKLRETQGIEKLVLINKSGNRSEKEVRAAALVLQTIWGYKELRKPLEKEGWKKSDFQVNLNNASRSQSSHSYDDSTLPLIDRNQKSDKKPDREEIPMSNMGSNTKSLDNNYSTLNERGDHNRTLDRSGDLGDMEPLKGAPLMQKI
Regarding B2, the binding result in assay [7] was “binds”.
